Test results taken from publication doi:10.1101/2025.03.03.641251.
Results are given in words; binding and its absence hold for the method and conditions named. In cells and extracts the contact can be indirect. Some results given as binding are weak or reduced against the parent protein; the word gives no strength.

The chains behind the UniProt entries cited, without tags or fusion partners. Residues count along the entry.
UniProt P39060, residues 24-1754: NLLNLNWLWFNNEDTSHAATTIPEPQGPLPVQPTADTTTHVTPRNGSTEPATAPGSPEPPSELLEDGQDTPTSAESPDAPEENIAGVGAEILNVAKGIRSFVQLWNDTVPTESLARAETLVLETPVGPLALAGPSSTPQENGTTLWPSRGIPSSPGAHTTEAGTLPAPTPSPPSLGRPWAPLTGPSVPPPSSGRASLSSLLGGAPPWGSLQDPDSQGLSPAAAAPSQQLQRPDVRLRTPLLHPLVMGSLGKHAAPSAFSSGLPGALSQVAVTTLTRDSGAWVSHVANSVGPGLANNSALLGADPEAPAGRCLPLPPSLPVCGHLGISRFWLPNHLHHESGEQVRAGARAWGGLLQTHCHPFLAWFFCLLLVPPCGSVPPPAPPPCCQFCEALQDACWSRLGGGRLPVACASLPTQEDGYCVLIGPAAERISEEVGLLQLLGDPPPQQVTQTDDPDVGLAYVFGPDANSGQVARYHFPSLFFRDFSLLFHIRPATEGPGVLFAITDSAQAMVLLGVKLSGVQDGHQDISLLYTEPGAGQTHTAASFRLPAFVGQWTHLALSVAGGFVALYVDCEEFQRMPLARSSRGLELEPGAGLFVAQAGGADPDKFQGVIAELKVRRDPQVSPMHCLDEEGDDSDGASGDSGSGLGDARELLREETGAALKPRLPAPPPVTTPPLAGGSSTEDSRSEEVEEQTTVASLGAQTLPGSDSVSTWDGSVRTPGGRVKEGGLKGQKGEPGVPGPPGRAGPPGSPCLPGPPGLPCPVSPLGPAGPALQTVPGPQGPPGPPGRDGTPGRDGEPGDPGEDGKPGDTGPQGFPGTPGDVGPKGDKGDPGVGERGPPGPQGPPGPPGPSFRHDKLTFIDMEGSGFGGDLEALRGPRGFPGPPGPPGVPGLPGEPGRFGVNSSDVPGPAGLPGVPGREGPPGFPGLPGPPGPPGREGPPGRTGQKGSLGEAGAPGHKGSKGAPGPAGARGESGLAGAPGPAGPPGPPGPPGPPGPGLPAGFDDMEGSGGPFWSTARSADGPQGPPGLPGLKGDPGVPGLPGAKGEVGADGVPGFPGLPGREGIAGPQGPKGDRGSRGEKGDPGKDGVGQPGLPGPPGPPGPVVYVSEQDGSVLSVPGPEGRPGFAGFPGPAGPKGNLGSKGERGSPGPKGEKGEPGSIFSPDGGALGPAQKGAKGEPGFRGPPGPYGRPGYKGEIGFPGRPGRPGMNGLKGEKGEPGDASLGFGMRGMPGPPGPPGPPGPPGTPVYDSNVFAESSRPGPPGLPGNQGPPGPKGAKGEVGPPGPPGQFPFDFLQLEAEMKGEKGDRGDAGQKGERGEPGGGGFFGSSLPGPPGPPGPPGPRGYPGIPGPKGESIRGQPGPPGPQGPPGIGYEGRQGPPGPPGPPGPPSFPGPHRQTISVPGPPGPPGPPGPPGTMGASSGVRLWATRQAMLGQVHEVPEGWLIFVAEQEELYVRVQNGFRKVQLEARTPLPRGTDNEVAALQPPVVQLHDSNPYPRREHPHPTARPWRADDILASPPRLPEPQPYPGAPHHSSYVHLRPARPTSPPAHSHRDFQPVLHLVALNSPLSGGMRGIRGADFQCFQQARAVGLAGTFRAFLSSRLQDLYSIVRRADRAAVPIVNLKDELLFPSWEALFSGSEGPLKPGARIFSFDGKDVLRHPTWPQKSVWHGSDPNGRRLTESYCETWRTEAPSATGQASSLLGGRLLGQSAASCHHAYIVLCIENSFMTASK

Molecular target: T1, SPINK1-ALFA (human) (UniProt P00995)
T1 sequence: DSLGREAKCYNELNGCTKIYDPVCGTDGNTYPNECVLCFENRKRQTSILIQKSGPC
Test: co-IP

binding: binds
Substance: COL18A1 (from UniProt P39060 24-1754)
